From article PMC8406304, “Inhibiting Type VI Secretion System Activity with a Biomimetic Peptide Designed To Target the Baseplate Wedge Complex” (mBio, 2021)
These are yes or no findings as the source states them, for the method shown. For part of these data: In cells and extracts the contact can be indirect. For part of these data: Binding can be weak; no strength is given. For part of these data: Sequences can lack the tags named with a protein.

Experiments:
[1] = target: T1, TssK-Strep of Acinetobacter baumannii (Acinetobacter baumannii 17978) (UniProt R9RHI9); assay: pull-down; affinity copurification: soluble extracts of E. coli BL21(DE3) coproducing Strep-tagged TssK and Flag-tagged TssG loaded on a StrepTrap HP column in 50 mM Tris-HCl pH 8.0, 150 mM NaCl, eluted with 2.5 mM desthiobiotin; immunoblot of lysate, flowthrough, wash and eluate
T1 sequence: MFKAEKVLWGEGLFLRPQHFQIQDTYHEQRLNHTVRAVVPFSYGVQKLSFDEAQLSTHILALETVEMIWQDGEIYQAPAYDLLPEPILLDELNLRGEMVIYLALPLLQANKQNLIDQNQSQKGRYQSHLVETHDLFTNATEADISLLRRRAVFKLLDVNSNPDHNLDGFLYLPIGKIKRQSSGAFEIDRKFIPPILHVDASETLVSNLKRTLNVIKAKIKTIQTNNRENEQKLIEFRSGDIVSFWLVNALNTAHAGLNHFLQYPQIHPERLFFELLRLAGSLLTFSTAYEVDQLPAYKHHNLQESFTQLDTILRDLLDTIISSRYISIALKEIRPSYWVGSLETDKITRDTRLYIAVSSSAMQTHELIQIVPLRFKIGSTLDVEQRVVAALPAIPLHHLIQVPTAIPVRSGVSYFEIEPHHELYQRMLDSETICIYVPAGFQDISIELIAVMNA

[2] = target: Strep-tagged TssK W8A (EAEC) (enteroaggregative Escherichia coli (EAEC) 17-2); assay: as above
[3] = target: Strep-tagged TssK L14A (EAEC) (enteroaggregative Escherichia coli (EAEC) 17-2); assay: ITC; 25 μM TssK in the cell, 1 mM peptide in the syringe; 50 mM HEPES pH 7.0, 150 mM NaCl, 25°C; One Set of Sites model; both purified

Molecule: Flag-tagged TssG (EAEC)
- binding [1]: binds

B1: Flag-tagged TssG of Acinetobacter baumannii (protein, UniProt R9RIP0 1-332)
chain: MQSERWWQDSSITAELFQRPKSFEFIQATRLLRHSPANDSFSSWTDHFKFETSFNLNFPATEIESLELVDERVHLTNLIVGLTGIQGALPYTYTNKIKQAPRQQRAETKEFLSLFNHKLTSQYVESSITYHLPVRYEIENKNDYLDILHALNGYVRSQHQQQDLDEYFAEFSGLMQGQNNTVHALKTMLSCIFKHEITIKEFIQESFKLASDQLTTLGGSQPSLLGINTFCGETIQQIDGKIEIQIGPLKRQQYLKFLPHQELSLKLKKIVETWCSPTLSIDLRLILDESEIQPIRLTQSEESGLGQGAFLMSRKPSTHSHETCYSLIGEQI
- binding [2]: no binding

Molecule: SRPVMGSRPVMGSRPVMG (head-to-tail cyclization) [biomimetic cyclic peptide (BCP)]
- binding [3]: no binding (tested: 25 μM TssK L14A, 1 mM WT BCP)
